The values that follow come from US20120107243A1.

No constants are given. Whether binding was seen depends on the method and setting. Some binding calls cover weakened binding; strength is not graded here.

This test concerns the target Bacterial β-galactosidase (Calbiochem, Catalog #345788) (bacterial) [β-galactosidase: P00722]. The test is described as follows: inferred from β-galactosidase activity staining of brain slices after sequential intravenous injection of the peptide and then the enzyme.

B1: K16ApoE carrier peptide (peptide)
peptide: KKKKKKKKKKKKKKKKLRVRLASHLRKLRKRLLRDA
B1: the binding result was “binds”.
